In paper PMC4110944, “Probing SH2-domains using Inhibitor Affinity Purification (IAP)” (Proteome Science, 2014) one finds binding data, which are given here for one substance.

Sequences of proteins named here, by UniProt entry; tags and fusion partners are left off.
UniProt O00459: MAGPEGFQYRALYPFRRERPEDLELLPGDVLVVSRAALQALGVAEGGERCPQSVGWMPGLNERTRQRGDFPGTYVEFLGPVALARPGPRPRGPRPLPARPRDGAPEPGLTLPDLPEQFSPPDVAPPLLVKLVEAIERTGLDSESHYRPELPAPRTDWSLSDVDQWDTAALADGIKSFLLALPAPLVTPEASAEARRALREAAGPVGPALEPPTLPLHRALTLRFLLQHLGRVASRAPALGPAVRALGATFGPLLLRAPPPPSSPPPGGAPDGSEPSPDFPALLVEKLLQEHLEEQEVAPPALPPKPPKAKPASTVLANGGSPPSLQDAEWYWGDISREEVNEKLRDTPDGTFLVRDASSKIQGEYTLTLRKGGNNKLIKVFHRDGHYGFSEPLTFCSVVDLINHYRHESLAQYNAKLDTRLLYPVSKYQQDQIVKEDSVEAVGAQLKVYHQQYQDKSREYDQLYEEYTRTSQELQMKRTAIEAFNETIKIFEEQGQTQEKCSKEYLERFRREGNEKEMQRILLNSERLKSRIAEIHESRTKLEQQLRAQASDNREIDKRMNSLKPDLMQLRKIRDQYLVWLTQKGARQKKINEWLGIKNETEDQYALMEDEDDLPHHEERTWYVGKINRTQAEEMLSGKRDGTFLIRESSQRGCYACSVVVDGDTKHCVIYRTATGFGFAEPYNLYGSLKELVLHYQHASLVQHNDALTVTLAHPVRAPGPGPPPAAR
UniProt P42338: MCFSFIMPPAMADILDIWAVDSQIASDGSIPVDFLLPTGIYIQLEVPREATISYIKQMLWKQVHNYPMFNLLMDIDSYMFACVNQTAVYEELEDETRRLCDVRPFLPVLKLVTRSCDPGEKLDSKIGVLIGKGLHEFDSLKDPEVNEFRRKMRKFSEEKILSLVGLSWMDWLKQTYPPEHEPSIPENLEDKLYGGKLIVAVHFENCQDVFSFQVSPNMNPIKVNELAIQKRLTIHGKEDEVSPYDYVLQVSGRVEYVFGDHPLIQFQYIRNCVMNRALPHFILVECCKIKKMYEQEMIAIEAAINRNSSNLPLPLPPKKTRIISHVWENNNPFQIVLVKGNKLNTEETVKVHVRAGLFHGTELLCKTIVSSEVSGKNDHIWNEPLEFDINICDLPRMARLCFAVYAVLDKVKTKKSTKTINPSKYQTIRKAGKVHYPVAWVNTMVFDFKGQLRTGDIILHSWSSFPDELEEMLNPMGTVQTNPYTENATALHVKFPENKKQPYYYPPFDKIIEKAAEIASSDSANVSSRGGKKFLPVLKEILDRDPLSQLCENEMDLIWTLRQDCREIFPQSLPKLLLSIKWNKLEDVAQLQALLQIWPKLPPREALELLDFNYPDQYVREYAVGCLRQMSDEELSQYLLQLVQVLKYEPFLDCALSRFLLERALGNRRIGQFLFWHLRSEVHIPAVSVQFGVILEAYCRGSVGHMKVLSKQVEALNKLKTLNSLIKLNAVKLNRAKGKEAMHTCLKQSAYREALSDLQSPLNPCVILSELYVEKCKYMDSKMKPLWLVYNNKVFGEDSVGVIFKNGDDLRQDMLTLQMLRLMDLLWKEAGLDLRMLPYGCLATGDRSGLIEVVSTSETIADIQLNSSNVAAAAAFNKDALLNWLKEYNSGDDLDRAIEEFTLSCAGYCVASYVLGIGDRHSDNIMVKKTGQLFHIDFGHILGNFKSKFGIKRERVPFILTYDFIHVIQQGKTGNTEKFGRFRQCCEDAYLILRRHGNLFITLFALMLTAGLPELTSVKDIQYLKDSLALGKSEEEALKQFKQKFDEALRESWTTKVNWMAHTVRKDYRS

The experiment concerns the target Phosphoinositide 3-kinase regulatory subunit 2 (p85β) (human (endogenous in Colo205)) (UniProt O00459). Kind of experiment: affinity purification with mass spectrometry; probe 1 immobilised on NHS-sepharose beads; lysate of Colo205 cells treated with water (control) or 100 uM pervanadate; lysate with beads 30 min at 4°C; washes with CP buffer with 0.4% and 0.2% NP40 and 10% glycerol; LC-MS/MS, label-free quantification, triplicates.

No constants are given. Whether binding was seen depends on the method and setting. In cells and extracts the contact can be indirect. These calls come from enrichment with a bait or labelling near it, and not all partners need be listed.

Consider “Phosphoinositide 3-kinase catalytic subunit B (p110β) (from UniProt P42338 1-1070) (enzyme)”, for which the binding entry is reported as “binds”.
